# The other results are listed elsewhere or left out.
# Chains of the proteins cited; added tags and fusions are not shown. Lines headed by an entry give the natural chain unless they say otherwise; changes in a name come on top.
# UniProt Q9C0C2: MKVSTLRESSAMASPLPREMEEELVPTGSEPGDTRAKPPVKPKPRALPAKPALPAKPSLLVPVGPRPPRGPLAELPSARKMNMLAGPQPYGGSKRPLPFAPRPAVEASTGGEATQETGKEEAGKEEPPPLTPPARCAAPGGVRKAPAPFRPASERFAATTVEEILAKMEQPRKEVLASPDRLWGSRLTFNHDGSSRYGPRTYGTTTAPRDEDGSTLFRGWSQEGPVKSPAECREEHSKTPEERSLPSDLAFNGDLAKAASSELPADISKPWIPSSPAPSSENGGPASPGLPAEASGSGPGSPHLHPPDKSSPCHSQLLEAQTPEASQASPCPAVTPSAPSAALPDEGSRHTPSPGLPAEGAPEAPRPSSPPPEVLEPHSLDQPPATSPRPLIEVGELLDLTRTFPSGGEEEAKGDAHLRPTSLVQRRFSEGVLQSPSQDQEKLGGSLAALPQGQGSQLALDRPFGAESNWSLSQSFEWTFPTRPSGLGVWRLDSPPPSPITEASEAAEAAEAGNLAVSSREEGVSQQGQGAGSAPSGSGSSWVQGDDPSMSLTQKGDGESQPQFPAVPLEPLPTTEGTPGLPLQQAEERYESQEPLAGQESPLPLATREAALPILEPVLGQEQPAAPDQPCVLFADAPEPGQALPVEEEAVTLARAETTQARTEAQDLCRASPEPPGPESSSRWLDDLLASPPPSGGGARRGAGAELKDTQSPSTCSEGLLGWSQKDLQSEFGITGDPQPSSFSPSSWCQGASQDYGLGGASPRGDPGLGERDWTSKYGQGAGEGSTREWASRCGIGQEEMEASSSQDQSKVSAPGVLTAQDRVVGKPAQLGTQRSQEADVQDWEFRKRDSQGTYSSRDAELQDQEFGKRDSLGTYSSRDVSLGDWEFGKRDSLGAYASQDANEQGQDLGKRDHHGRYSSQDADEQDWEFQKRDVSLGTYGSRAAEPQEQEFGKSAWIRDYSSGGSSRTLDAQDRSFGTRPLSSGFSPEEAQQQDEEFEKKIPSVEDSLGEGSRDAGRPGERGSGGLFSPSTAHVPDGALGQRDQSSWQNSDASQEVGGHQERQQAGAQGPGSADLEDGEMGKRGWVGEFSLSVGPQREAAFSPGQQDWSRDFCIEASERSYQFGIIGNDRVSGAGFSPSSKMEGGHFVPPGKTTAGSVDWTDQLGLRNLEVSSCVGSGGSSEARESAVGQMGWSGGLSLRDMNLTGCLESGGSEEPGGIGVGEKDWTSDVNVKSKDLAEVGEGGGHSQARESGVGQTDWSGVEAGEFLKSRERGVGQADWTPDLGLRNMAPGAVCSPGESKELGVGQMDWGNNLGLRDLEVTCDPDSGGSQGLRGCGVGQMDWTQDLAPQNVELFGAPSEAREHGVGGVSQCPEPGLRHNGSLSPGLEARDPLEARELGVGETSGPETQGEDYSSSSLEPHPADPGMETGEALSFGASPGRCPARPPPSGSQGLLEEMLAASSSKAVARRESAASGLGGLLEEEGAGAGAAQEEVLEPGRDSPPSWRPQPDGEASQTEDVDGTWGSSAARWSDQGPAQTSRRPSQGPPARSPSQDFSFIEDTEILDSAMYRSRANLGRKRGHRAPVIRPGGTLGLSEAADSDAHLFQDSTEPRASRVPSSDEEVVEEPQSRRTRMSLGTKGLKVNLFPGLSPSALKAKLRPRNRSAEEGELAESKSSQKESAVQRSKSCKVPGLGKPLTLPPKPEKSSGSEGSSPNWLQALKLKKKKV
# UniProt Q5JU69: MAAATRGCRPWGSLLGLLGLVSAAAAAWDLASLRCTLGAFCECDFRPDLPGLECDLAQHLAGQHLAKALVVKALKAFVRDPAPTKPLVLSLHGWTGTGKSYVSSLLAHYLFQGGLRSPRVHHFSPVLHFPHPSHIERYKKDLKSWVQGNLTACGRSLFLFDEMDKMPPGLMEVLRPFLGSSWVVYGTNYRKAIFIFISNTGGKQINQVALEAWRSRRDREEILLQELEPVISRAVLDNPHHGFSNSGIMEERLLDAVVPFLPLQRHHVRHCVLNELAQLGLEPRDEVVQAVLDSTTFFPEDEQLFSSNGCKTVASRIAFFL
# UniProt Q9Y2L5: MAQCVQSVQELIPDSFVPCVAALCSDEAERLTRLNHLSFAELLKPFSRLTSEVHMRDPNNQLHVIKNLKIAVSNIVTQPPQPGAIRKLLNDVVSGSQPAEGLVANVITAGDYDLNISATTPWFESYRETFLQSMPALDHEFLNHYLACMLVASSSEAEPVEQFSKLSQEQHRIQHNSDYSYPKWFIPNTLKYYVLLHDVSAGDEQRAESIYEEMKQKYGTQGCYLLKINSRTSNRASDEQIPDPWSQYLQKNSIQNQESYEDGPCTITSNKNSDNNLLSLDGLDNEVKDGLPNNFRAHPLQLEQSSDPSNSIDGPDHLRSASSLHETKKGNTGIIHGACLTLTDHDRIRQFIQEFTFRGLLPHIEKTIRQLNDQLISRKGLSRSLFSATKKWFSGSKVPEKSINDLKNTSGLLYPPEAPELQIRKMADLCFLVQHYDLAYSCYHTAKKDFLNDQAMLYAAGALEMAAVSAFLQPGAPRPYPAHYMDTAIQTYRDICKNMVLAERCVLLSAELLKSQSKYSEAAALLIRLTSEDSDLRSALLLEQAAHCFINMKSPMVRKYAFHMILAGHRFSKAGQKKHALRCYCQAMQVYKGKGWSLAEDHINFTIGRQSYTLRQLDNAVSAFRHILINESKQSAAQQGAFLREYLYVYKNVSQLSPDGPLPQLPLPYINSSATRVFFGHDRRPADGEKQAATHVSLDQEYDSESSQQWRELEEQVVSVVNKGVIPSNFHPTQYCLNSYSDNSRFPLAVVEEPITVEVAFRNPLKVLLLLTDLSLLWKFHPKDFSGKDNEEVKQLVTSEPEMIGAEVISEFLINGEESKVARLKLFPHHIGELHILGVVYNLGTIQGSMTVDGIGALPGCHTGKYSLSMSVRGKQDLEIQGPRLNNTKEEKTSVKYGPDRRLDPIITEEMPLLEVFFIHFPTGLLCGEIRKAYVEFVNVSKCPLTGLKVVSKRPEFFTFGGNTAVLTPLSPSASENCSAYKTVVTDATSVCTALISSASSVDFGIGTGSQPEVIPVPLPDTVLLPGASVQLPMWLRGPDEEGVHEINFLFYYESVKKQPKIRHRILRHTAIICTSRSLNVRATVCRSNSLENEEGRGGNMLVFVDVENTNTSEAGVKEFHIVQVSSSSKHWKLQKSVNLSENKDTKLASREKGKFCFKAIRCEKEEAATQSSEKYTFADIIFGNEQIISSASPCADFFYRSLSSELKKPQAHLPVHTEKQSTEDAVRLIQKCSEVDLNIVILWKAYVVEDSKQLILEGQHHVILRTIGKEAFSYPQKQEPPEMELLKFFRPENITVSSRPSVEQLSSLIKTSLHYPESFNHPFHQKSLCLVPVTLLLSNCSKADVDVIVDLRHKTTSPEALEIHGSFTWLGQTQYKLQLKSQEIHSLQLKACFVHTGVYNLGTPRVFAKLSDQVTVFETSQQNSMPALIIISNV
# UniProt Q9Y5L0: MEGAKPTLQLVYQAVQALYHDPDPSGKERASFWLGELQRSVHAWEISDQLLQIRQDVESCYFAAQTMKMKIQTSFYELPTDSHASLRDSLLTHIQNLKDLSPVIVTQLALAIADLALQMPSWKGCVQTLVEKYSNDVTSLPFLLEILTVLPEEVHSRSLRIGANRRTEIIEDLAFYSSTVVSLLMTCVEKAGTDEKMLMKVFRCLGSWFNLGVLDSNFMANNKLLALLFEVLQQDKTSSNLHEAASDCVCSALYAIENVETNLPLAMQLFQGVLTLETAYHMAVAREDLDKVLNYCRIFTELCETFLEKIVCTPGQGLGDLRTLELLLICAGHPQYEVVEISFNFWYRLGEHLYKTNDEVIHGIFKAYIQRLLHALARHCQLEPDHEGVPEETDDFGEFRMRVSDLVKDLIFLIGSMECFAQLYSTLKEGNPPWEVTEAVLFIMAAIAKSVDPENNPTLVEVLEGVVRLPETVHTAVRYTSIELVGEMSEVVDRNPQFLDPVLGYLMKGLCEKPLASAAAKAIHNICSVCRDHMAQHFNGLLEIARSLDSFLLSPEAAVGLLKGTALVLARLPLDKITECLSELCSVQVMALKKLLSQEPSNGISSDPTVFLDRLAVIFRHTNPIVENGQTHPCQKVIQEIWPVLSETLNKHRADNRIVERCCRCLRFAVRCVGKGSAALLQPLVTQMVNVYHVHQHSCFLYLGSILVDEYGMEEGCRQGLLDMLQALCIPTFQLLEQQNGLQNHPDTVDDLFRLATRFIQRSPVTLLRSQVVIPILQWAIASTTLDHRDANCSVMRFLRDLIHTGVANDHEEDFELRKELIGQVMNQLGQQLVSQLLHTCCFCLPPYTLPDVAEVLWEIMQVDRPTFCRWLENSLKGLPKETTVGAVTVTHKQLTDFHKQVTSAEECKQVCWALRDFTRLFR
# UniProt Q15654: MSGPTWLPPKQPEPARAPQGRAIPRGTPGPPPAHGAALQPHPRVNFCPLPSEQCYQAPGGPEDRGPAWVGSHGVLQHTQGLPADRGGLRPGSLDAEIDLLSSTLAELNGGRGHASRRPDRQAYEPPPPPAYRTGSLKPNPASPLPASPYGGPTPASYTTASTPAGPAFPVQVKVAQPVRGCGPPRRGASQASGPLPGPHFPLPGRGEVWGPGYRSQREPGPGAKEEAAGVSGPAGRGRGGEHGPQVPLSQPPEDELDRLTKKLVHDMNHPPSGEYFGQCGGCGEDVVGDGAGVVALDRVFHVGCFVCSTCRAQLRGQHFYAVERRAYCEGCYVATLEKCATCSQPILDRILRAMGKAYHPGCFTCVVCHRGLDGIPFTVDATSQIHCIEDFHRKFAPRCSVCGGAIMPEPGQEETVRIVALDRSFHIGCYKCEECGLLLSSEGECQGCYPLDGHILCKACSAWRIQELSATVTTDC
# UniProt O60704: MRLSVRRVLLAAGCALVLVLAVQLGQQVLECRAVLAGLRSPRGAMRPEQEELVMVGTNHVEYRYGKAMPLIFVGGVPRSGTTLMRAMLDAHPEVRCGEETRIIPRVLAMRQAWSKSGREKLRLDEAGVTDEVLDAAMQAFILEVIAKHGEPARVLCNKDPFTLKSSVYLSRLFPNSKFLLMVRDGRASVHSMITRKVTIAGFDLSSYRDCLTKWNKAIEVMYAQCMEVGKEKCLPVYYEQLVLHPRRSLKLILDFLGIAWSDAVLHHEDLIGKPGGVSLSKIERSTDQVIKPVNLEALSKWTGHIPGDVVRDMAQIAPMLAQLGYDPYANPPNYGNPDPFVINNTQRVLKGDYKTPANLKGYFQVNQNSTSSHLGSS
# UniProt P48553, whole entry, looked up: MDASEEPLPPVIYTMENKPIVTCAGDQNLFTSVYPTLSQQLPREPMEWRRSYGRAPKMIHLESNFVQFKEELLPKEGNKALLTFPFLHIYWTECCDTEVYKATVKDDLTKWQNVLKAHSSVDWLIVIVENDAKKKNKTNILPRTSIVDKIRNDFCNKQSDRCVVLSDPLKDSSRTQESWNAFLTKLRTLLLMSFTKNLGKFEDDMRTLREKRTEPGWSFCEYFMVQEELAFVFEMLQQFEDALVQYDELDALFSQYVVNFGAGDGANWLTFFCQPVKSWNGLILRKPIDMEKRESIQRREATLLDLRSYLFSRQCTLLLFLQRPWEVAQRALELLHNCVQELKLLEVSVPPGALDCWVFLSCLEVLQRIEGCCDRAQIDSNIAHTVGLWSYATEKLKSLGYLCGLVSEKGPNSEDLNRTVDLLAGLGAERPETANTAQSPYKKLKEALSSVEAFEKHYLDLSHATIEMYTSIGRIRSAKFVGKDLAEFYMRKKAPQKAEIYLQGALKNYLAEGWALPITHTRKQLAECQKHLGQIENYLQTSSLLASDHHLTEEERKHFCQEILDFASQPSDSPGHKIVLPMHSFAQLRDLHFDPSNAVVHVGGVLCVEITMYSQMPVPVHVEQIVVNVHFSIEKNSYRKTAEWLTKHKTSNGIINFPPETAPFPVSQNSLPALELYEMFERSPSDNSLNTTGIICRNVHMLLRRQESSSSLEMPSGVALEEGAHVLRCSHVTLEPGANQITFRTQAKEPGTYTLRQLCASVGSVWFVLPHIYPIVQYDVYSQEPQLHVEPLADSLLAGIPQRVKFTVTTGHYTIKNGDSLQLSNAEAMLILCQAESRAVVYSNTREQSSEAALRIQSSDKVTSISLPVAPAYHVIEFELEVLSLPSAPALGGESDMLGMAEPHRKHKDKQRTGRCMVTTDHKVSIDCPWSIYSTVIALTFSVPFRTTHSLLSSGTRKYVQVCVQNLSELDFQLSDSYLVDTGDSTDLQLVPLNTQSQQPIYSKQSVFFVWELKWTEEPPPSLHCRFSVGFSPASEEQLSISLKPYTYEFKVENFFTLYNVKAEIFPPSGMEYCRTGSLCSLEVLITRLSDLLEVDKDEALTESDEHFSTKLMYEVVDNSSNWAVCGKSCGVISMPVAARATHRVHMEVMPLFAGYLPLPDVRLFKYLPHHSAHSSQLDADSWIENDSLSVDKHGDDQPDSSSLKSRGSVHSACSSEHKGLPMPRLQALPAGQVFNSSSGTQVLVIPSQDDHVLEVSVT
# How the values were obtained:
# Assay in all cases: log2 fold change, soluble protein after heating vs DMSO (PISA); higher = thermal stabilisation; K562 cells, 10 uM, 30 min; active = over 0.2 and 3.5 SD of the protein, either way, in both replicates (recomputed)
# [1] = compound: CC1=C(C=C(C=C1)NC(=O)C2=CC(=CC=C2)C(C)(C)C#N)NC3=CC4=C(C=C3)N=CN(C4=O)C
# Summary of the method: (§1)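 Values are thermal stability changes relative to control samples and are taken from duplicates. They are stated as log2 fold changes. Before quantification by TMTpro 16plex LC-MS/MS with equalised channel sums, K562 cells at 2×10^6 cells/mL were treated with 10 μM compound for 30 min, heated in aliquots for 3 min across 48°C-58°C, pooled, extracted in PBS with 0.5% NP-40 at 4°C, and centrifuged at 21,000xg for 90 min to give the soluble supernatant.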
# [2] = compound: CC1=C(C=C(C=C1)NC(=O)C2=CC(=CC=C2)N(C)C)NC(=O)C3=CC=C(C=C3)O
# Summary of the method: as §1
# [3] = compound: CC1=CC=C(C=C1)SC2=C3C=C(SC3=CN=C2)C(=O)N
# Summary of the method: as §1
# [4] = compound: CC1=NC(=CC=C1)C2=C(N=C(N2)C(C)(C)C)C3=CC4=NC=CN=C4C=C3
# Summary of the method: as §1
# Nexturastat A = compound: CCCCN(Cc1ccc(C(=O)NO)cc1)C(=O)Nc1ccccc1 [Nexturastat A]
# Summary of the method: as §1
# vemurafenib = compound: CCCS(=O)(=O)Nc1ccc(F)c(C(=O)c2c[nH]c3ncc(-c4ccc(Cl)cc4)cc23)c1F [vemurafenib]
# Summary of the method: as §1
# [5] = compound: CCCS(=O)(=O)Nc1ccc(F)c(C(=O)c2c[nH]c3ncc(Cl)cc23)c1F
# Summary of the method: as §1
# [6] = compound: CCCc1cc(C)[nH]c(=O)c1CNC(=O)c1cc(-c2ccnc(N3CCN(C)CC3)c2)cc2c1cnn2C(C)C
# Summary of the method: as §1
# givinostat = compound: CCN(CC)Cc1ccc2cc(COC(=O)Nc3ccc(C(=O)NO)cc3)ccc2c1 [givinostat]
# Summary of the method: as §1
# barasertib = compound: CCN(CCCOc1ccc2c(Nc3cc(CC(=O)Nc4cccc(F)c4)[nH]n3)ncnc2c1)CCOP(=O)(O)O [barasertib]
# Summary of the method: as §1
Target,log2 fold change [1],log2 fold change [2],log2 fold change [3],log2 fold change [4],log2 fold change (Nexturastat A),log2 fold change (vemurafenib),log2 fold change [5],log2 fold change [6],log2 fold change (givinostat),log2 fold change (barasertib)
TPK1 (UniProt Q9H3S4),inactive: -0.048,inactive: 0.143,inactive: -0.03,inactive: -0.012,inactive: -0.07,inactive: -0.154,inactive: -0.058,inactive: -0.013,inactive: -0.488,inactive: -0.099
TPCN1 isoform 3 (UniProt Q9ULQ1),inactive: 0.179,inactive: 0.053,inactive: -0.113,inactive: 0.063,inactive: 0.004,inactive: -0.097,inactive: 0.026,inactive: -0.265,inactive: 0.002,inactive: 0.061
TRA2B (UniProt P62995),inactive: -0.033,inactive: 0.098,inactive: -0.054,inactive: -0.126,inactive: 0.241,inactive: -0.076,inactive: -0.077,inactive: 0.065,inactive: -0.007,inactive: -0.165
TOMM34 (UniProt Q15785),inactive: 0.008,inactive: 0.009,inactive: 0.033,inactive: 0.021,inactive: 0.018,inactive: 0.082,inactive: 0.055,inactive: 0.07,inactive: 0.162,inactive: 0.08
TRIM11 (UniProt Q96F44),inactive: -0.068,inactive: -0.04,inactive: 0.064,inactive: -0.052,inactive: -0.004,inactive: 0.014,inactive: -0.01,inactive: -0.004,inactive: 0.012,inactive: 0.068
TRAPPC12 (UniProt Q8WVT3),inactive: 0.09,inactive: -0.042,inactive: -0.006,inactive: -0.032,inactive: 0.026,inactive: 0.086,inactive: 0.056,inactive: 0.016,inactive: 0.028,inactive: 0.011
TOP2B (UniProt Q02880),inactive: 0.024,inactive: 0.023,inactive: -0.066,inactive: -0.102,inactive: 0.154,inactive: -0.092,inactive: 0.011,inactive: 0.303,inactive: 0.172,inactive: -0.205
TRABD (UniProt Q9H4I3),inactive: 0.014,inactive: -0.017,inactive: -0.005,inactive: -0.133,inactive: -0.03,inactive: 0.125,inactive: -0.06,inactive: 0.147,inactive: -0.041,inactive: 0.031
TSEN2 (UniProt Q8NCE0),active: 0.306,inactive: 0.015,inactive: 0.014,inactive: -0.02,inactive: -0.013,inactive: 0.058,inactive: 0.063,inactive: 0.097,inactive: 0.012,inactive: 0.073
TRMU (UniProt O75648),inactive: 0.007,inactive: -0.103,inactive: -0.06,inactive: -0.009,inactive: -0.057,inactive: 0,inactive: -0.047,inactive: 0.047,inactive: 0.039,inactive: 0.015
TNKS1BP1 (UniProt Q9C0C2),inactive: -0.051,inactive: -0.014,inactive: -0.015,inactive: -0.042,inactive: 0.03,inactive: 0.015,inactive: -0.023,inactive: -0.025,inactive: -0.028,inactive: -0.02
TP53BP1 isoform 2 (UniProt Q12888),inactive: -0.02,inactive: -0.032,inactive: 0,inactive: -0.022,inactive: 0.045,inactive: 0,inactive: 0.02,inactive: 0.056,inactive: 0.019,inactive: 0.022
TRMT61A (UniProt Q96FX7),inactive: 0,inactive: 0.056,inactive: -0.013,inactive: -0.083,inactive: 0.204,inactive: -0.119,inactive: -0.009,inactive: 0.114,inactive: 0.038,inactive: -0.091
TOR2A (UniProt Q5JU69),inactive: -0.049,inactive: 0.02,inactive: -0.012,inactive: 0.042,inactive: -0.076,inactive: 0.179,inactive: -0.022,inactive: -0.009,inactive: -0.021,inactive: 0.007
TRAPPC8 (UniProt Q9Y2L5),inactive: 0.079,inactive: -0.036,inactive: -0.009,inactive: -0.022,inactive: 0.024,inactive: 0.026,inactive: 0.066,inactive: 0.012,inactive: 0.066,inactive: 0.033
TNPO3 (UniProt Q9Y5L0),inactive: 0.028,inactive: 0.004,inactive: 0.057,inactive: 0.003,inactive: -0.036,inactive: 0.069,inactive: 0.08,inactive: 0.003,inactive: 0.029,inactive: 0.019
TRAP1 (UniProt Q12931),inactive: -0.016,inactive: 0.008,inactive: -0.004,inactive: 0.025,inactive: -0.051,inactive: 0.016,inactive: -0.001,inactive: -0.03,inactive: -0.012,inactive: -0.004
TRIP6 (UniProt Q15654),inactive: -0.006,inactive: -0.02,inactive: 0,inactive: 0.025,inactive: -0.054,inactive: -0.001,inactive: 0.013,inactive: 0.018,inactive: 0.006,inactive: -0.009
TOMM40 (UniProt O96008),inactive: 0.045,inactive: 0.028,inactive: 0.006,inactive: 0.034,inactive: -0.13,inactive: 0.001,inactive: 0.008,inactive: -0.02,inactive: -0.007,inactive: -0.008
TPST2 (UniProt O60704),inactive: -0.026,inactive: -0.025,inactive: -0.034,inactive: 0.07,inactive: -0.016,inactive: -0.013,inactive: -0.015,inactive: -0.087,inactive: 0.045,inactive: 0.067
TRIP13 (UniProt Q15645),inactive: -0.026,inactive: 0.008,inactive: 0.049,inactive: 0.053,inactive: -0.078,inactive: 0.029,inactive: 0.04,inactive: -0.028,inactive: 0.018,inactive: 0
TRMT61B (UniProt Q9BVS5),inactive: -0.035,inactive: 0.033,inactive: -0.015,inactive: -0.112,inactive: 0.119,inactive: -0.049,inactive: -0.107,inactive: 0.021,inactive: -0.02,inactive: -0.061
TRAPPC10 (UniProt P48553),inactive: -0.039,inactive: 0.069,inactive: -0.028,inactive: -0.002,inactive: 0.069,inactive: 0.035,inactive: 0.025,inactive: -0.047,inactive: 0.053,inactive: -0.004
TRPV2 (UniProt Q9Y5S1),inactive: 0.034,inactive: 0.021,inactive: -0.031,inactive: -0.009,inactive: -0.064,inactive: 0.01,inactive: -0.013,inactive: -0.054,inactive: -0.044,inactive: 0.001
TRIM33 (UniProt Q9UPN9),inactive: -0.249,inactive: -0.041,inactive: 0.049,inactive: -0.029,inactive: 0.025,inactive: 0.027,inactive: 0.03,inactive: 0.038,inactive: 0.145,inactive: 0.016
TRAPPC3 (UniProt O43617),inactive: 0,inactive: 0.023,inactive: 0.061,inactive: 0.042,active: -0.218,inactive: 0.023,inactive: 0.01,inactive: -0.006,inactive: -0.051,inactive: 0.025
TPD52L2 isoform 7 (UniProt O43399),inactive: 0.001,inactive: 0.005,inactive: 0.019,inactive: -0.012,inactive: -0.046,inactive: -0.016,inactive: 0.007,inactive: -0.03,inactive: -0.016,inactive: -0.016

# Exported with tabs: entries from further up.
Target	log2 fold change [1]	log2 fold change [2]	log2 fold change [3]	log2 fold change [4]	log2 fold change (Nexturastat A)	log2 fold change (vemurafenib)	log2 fold change [5]	log2 fold change [6]	log2 fold change (givinostat)	log2 fold change (barasertib)
TPK1 (UniProt Q9H3S4)	inactive: -0.048	inactive: 0.143	inactive: -0.03	inactive: -0.012	inactive: -0.07	inactive: -0.154	inactive: -0.058	inactive: -0.013	inactive: -0.488	inactive: -0.099
TPD52L2 isoform 7 (UniProt O43399)	inactive: 0.001	inactive: 0.005	inactive: 0.019	inactive: -0.012	inactive: -0.046	inactive: -0.016	inactive: 0.007	inactive: -0.03	inactive: -0.016	inactive: -0.016

# Source: the supplement of paper PMC10849652
